# Laboratory results as given in PubChem BioAssay AID1671190 (National Center for Advancing Translational Sciences (NCATS), 2021).
# Protein sequences, listed by entry. Tags and fused reporters are not part of them. Lines headed by an entry give the natural chain unless they say otherwise; changes in a name come on top.
# UniProt P18054: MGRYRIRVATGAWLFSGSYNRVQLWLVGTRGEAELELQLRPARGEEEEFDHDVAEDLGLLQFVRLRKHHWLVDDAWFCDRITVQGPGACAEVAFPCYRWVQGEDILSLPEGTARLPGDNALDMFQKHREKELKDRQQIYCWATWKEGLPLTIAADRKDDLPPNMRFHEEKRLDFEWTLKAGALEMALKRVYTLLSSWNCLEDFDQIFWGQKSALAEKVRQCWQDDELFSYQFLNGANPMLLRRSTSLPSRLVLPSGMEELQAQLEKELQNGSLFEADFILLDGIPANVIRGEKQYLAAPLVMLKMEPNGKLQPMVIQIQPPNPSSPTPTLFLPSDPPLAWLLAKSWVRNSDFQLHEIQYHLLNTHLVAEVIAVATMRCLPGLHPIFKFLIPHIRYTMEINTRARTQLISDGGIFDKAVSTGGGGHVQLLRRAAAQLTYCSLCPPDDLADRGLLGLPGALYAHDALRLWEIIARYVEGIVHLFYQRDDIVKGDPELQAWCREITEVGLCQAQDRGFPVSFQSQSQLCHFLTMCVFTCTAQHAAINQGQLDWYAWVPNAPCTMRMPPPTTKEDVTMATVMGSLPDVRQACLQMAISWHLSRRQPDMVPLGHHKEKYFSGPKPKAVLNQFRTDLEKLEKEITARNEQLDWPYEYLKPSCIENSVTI
# Values joined by “and” are separate entries in the source; they are usually repeats but may differ in a detail not shown here. Equal entries are not always repeated. In all, about 580,000 compounds went through this assay and about 6,100 (1.1%) were called active. This list was built around the results that the source calls inconclusive (neither active nor inactive); the mix of calls is not that of the screen. Calls follow the shape of the dose curve; as a rule, active = well fitted inhibition curve with a large enough effect; inconclusive = small, poorly fitted or top-dose-only effect, or another doubt; inactive = no such curve, though single readings can be large or run the other way. Where the call is inconclusive, the potency comes from a doubtful curve fit.
# Biological target: Polyunsaturated fatty acid lipoxygenase ALOX12 (Homo sapiens) (UniProt P18054)
# Experiment: Primary qHTS assay for inhibitors of human arachidonate 12S-lipoxygenase (ALOX12): Round 2
# Conditions: purified 12hLO, xylenol orange hydroperoxide absorbance; activity change, negative = inhibition: at 108 µM (top of the series) unless noted
# How it was run: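 Purified human 12hLO (150 nM final) in 25 mM Hepes, 0.01% Triton X-100, pH 7.0 was preincubated 15 min at room temperature with compound. Then 40 uM arachidonic acid was added, 30 min. Hydroperoxide was read by Fe-XO absorbance ratio 573/405 nm.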
# % is scaled to controls: 0 for no effect and ±100 for the full control effect; potency is read from the fitted curve at half-maximal effect.
Compound,Potency,"activity change, negative = inhibition"
Cc1ccc(-c2ccccc2)cc1,"inconclusive: 126 µM [inhibitor, partial curve, poor fit]",–
COC(=O)c1ccc(NC(=O)N2CCC(CN3CCc4ccccc4C3)CC2)cc1,"inconclusive: 79.4 µM [inhibitor, partial curve, poor fit] and inconclusive: 44.7 µM [inhibitor, partial curve, poor fit]",–
COc1ccc(/C=C/C(=O)N2CCC(c3nc4ccccc4o3)CC2)cc1,"inconclusive: 56.2 µM [inhibitor, partial curve, poor fit]",–
Cc1ccc(C)c(C2=NNC(=O)CC2)c1,"inconclusive: 112 µM [inhibitor, single point]",–
Cc1csc(CNC(=O)c2ccc3cc[nH]c3c2)n1,inactive,–
Cc1nc(C(F)(F)F)ccc1C(=O)N1CCC1(C)C(=O)NS(=O)(=O)c1ccc(C(C)(C)C)cc1 (centres undefined),"inconclusive: 2.51 µM [inhibitor, full curve, poor fit]",–
O=C(CSc1nnc(-c2ccncc2)o1)Nc1cc(F)ccc1F,inactive,–
CC(Sc1nnc(Nc2ccccc2)s1)C(=O)NC1CCCc2ccccc21 (centres undefined),"inconclusive: 31.6 µM [inhibitor, partial curve]",–
Cc1cccc(OCC2(CNC3CCOCC3)C[C@@H](O)[C@@H](O)C2)n1 (some centres undefined),active: 25.1 µM,–
S=c1[nH]nc(-c2ccccc2)n1CC1CCCO1 (centres undefined),"inconclusive: 39.8 µM [inhibitor, single point]",–
O=C(NCC1(N2CCOCC2)CCCCC1)C1CCN(C(=O)c2ccc(Cl)cc2)CC1,inactive,–
Cc1cn(CC(=O)NC2CCOC3(CCOCC3)C2)c(=O)[nH]c1=O (centres undefined),"inconclusive: 100 µM [inhibitor, partial curve, poor fit]",–
CNC(=S)N/N=C/c1ccc(-c2ccc(C(=O)O)cc2)o1,"inconclusive: 50.1 µM [inhibitor, partial curve, poor fit]",–
Cc1cc(C(=O)N2CCCCCC2)cc(S(=O)(=O)N2CCC(C)CC2)c1C,inactive,–
COc1cccc2cc(C(=O)Nc3ccc(F)cc3)c(=Nc3ccc(C(=O)O)cc3)oc12,"inconclusive: 3.98 µM [inhibitor, full curve, poor fit]",–
Cc1cccc(NC(=O)C(C#N)C(=O)CC(C)(C)C)c1 (centres undefined),"inconclusive: 39.8 µM [inhibitor, partial curve, poor fit]",–
O=C(CNC(=O)c1ccc(Cl)cc1Cl)OCc1nc2ccccc2s1,"inconclusive: 5.62 µM [inhibitor, full curve, poor fit]",–
O=C(C[C@@H]1C/C=C\C[C@H](NC(=O)OCC2c3ccccc3-c3ccccc32)C(=O)OC[C@@H]2CCCN2C1=O)NCCO,"inconclusive: 50.1 µM [inhibitor, partial curve, poor fit]",–
COC(=O)C(C)Sc1ccc2nnc(-c3cccc(F)c3)n2n1 (centres undefined),"inconclusive: 50.1 µM [inhibitor, partial curve, poor fit]",–
Cc1ccc(C2Cn3nnc(-c4noc(-c5nn(C)c6ccccc56)n4)c3CO2)cc1 (centres undefined),inactive,–
O=C(/C=C/c1ccc(-c2ccccc2)cc1)c1ccccc1,"inconclusive: 10 µM [inhibitor, partial curve, poor fit]",–
CC(=O)Oc1ccc(C(c2ccc(OC(C)=O)cc2)c2ccccn2)cc1,inactive,–

# Of the compounds above, these contain an aryl methoxy group:
Compound,Potency,"activity change, negative = inhibition"
COc1ccc(/C=C/C(=O)N2CCC(c3nc4ccccc4o3)CC2)cc1,"inconclusive: 56.2 µM [inhibitor, partial curve, poor fit]",–
COc1cccc2cc(C(=O)Nc3ccc(F)cc3)c(=Nc3ccc(C(=O)O)cc3)oc12,"inconclusive: 3.98 µM [inhibitor, full curve, poor fit]",–

# (more compounds)

Compound,Potency,"activity change, negative = inhibition"
CC(C)CCN1CCC(N2CCN(S(=O)(=O)c3ccc(F)c(Cl)c3)CC2)C1=O (centres undefined),inactive,–
CC1CCc2c(sc3nnn(CC(=O)OC4CCCC4)c(=O)c23)C1 (centres undefined),"inconclusive: 10 µM [inhibitor, full curve, poor fit]",–
O=C(O)COc1ccc(-c2nccc3c2C(=O)N(Cc2cccc(C(F)(F)F)c2)CC(COc2ccc(OC(F)(F)F)cc2)O3)cc1 (centres undefined),"inconclusive: 15.8 µM [inhibitor, full curve, poor fit]",–
C[C@H](CO)N1C[C@H](C)[C@@H](CN(C)C(=O)Nc2ccc(C(F)(F)F)cc2)Oc2c(NC(=O)CCC(F)(F)F)cccc2C1=O,inactive,–
O=C(NCc1ccccc1Cl)c1cnc(N2CCCCC2)c2ccccc12,"inconclusive: 112 µM [inhibitor, partial curve, poor fit]",–
CCN(C(=O)Cn1c(SCC(=O)NCc2ccccc2)nc2ccccc21)c1cccc(C)c1,"inconclusive: 141 µM [inhibitor, partial curve, poor fit]",–
COc1ccc(-c2[nH][nH]c(=O)c2NC(=O)c2ccc(C)cc2)cc1,"inconclusive: 50.1 µM [inhibitor, partial curve, poor fit]",–
CCOc1ccc(OCCCN(C)C)cc1,"inconclusive: 0.447 µM [inhibitor, full curve, poor fit]",–
Cc1cccn2c(Nc3ccc4c(c3)OCCO4)c(-c3ccc(Br)o3)nc12,"inconclusive: 50.1 µM [inhibitor, partial curve, poor fit]",–
O=C(Nc1cccc(Cl)c1Cl)c1cc2nc(-c3ccc4c(c3)OCO4)cc(C(F)(F)F)n2n1,–,inconclusive: -39.2% [inhibitor]
O=C(c1cccc(OC2CCN(Cc3cc(F)cc(F)c3)CC2)c1)N1CCCC1,inactive,–
CN(C)C(=O)c1ccc(NCC(=O)N2N=C(c3cc4ccccc4o3)CC2c2ccco2)cc1 (centres undefined),"inconclusive: 63.1 µM [inhibitor, partial curve, poor fit]",–
Cc1ccc(C(=O)CCC(=O)NC2CCc3ccccc32)cc1C (centres undefined),"inconclusive: 39.8 µM [inhibitor, partial curve, poor fit]",–
Cc1cccc(C2c3[nH]c4ccccc4c3CCN2C(=O)c2cn(C)c3ccccc3c2=O)n1 (centres undefined),"inconclusive: 25.1 µM [inhibitor, partial curve, poor fit]",–
O=C(NCCn1cccc1-c1nc(-c2ccccc2)no1)c1ccc(F)c(Cl)c1,inactive,–
CC(C)c1ccc(CNCc2ccco2)cc1,inactive,–
COCCn1c(C)cc(C(=O)CSc2nc(C)c(C)c(C)n2)c1C,inactive,–
O=C(Nc1cccc(-c2ccc(N3CCOCC3)nn2)c1)Nc1cc(F)ccc1F,"inconclusive: 3.98 µM [inhibitor, full curve]",–
Cc1ccc(CNC(=O)c2cc(C3CC3)nc3c2c(C)nn3-c2cccc(Cl)c2C)cc1,inactive,–
CCOc1ccccc1N1CC(C(=O)N2CCc3ccccc3C2)CC1=O (centres undefined),"inconclusive: 112 µM [inhibitor, single point]",–
CSC1=C(C#N)C(c2ccc(C)cc2)C2=C(CCCC2=O)N1 (centres undefined),"inconclusive: 50.1 µM [inhibitor, partial curve, poor fit]",–
C=CCOC(=O)c1ccc(N2CCN(c3ccccc3)CC2)nc1,"inconclusive: 126 µM [inhibitor, single point]",–

Compound,Potency,"activity change, negative = inhibition"
C=CCN=C1NC(c2ccccc2)C(C(=O)OC)=C(C)N1C (centres undefined),"inconclusive: 50.1 µM [inhibitor, partial curve, poor fit]",–
Cc1cc([N+](=O)[O-])ccc1NC(=S)NC(=O)C(c1ccccc1)c1ccccc1,inactive,–
COc1ccc(C(=O)N2CCN(Cc3cc(=O)oc4cc(C)ccc34)CC2)c(OC)c1,"inconclusive: 35.5 µM [inhibitor, partial curve, poor fit]",–
O=[N+]([O-])c1ccc(CN2CC(N3CCC(Cc4ccccc4)CC3)CS2(=O)=O)cc1 (centres undefined),"inconclusive: 112 µM [inhibitor, single point]",–
CCc1nc(Nc2ccc(O)cc2)c2oc3ccccc3c2n1,"inconclusive: 50.1 µM [inhibitor, partial curve, poor fit]",–
CCCN(CCC)C(=O)c1c[nH]c2ccc(S(=O)(=O)Nc3cc(C)cc(C)c3)cc2c1=O,"inconclusive: 50.1 µM [inhibitor, partial curve, poor fit]",–
CCOc1ccc(C(=O)Nc2ccccn2)c(OCC)c1,inactive,–
CCc1ncc(CN2CCCC(C(=O)Nc3cccc(-c4cccc(C)c4)c3)C2)cn1 (centres undefined),inactive,–
CCCN(CC1CCOC1)S(=O)(=O)c1ccc(C)cc1C (centres undefined),inactive,–
CC1(C)CC(=O)C(N=Nc2cccc([N+](=O)[O-])c2)=C(O)C1,"inconclusive: 100 µM [inhibitor, single point]",–
O=C(NCc1cccnc1)C(=O)NCC(c1ccco1)N1CCN(c2ccccc2)CC1 (centres undefined),inactive,–
Cc1cccc(N2CCN(C(=O)C3CCN(Cc4nc(-c5ccc(Cl)cc5)oc4C)CC3)CC2)c1C,"inconclusive: 112 µM [inhibitor, partial curve, poor fit]",–
O=C(/C=C/c1cccc(Cl)c1)OC1CCCCC1=O (centres undefined),"inconclusive: 22.4 µM [inhibitor, full curve, poor fit]",–
O=C(Nc1ccc(Cl)c(C(F)(F)F)c1)c1cccc(I)c1,"inconclusive: 28.2 µM [inhibitor, single point]",–
CC(=O)c1c(C)[nH]c(C(=O)Nc2cc(F)ccc2C)c1C,inactive,–
O=C(C1CC1)N1CCC2(CC1)NC(=O)N(c1cccc(Cl)c1)N2,active: 1.41 µM,–
COc1ccc(C)cc1S(=O)(=O)Nc1cccc(-c2ccc(N3CCC(C)CC3)nn2)c1,inactive,–
N=c1nc(N2CCCCC2)cc(N)n1O,"inconclusive: 6.31 µM [inhibitor, full curve, poor fit] and inconclusive: 15.8 µM [inhibitor, full curve, poor fit]",–
CC(C)N1C[C@@H]2CN(C(=O)CCCn3ccnc3)C[C@]2(C(=O)O)C1,inactive,–
COc1ccccc1NC(=O)c1ccc(NC(=O)CN2CCCCC2)cc1,"inconclusive: 35.5 µM [inhibitor, full curve, poor fit]",–
